The data set concerns 5E5 (anti-MUC1) antibody. Put plainly: Antigen-antibody binding studies by surface plasmon resonance (SPR). Also on record: species or system mouse. As to conditions: 5E5, 20° C. and 7.5 pH. As to the method:
Surface plasmon resonance (SPR) experiments were performed with a Biacore X-100 apparatus (Biacore, GE) in HBS-EP buffer solution at 7.5 pH (10 mM Hepes, 150 mM NaCl, 3 mM EDTA, with 2% DMSO and 0.05% Tween X100) at […]. This is the running buffer. The 5E5 antibody (from Abcam) was immobilised on a CM5 sensor chip (Biacore, GE) following the standard amine coupling method.^30 Briefly, the carboxymethyl dextran surface of flow cell 2 was activated by a 7 min injection of a 1:1 ratio of a 0.4 M aqueous solution of 1-ethyl-3-(3-dimethylaminopropyl) carbodiimide (EDC) and 0.1 M sulfo-N-hydroxysuccinimide. As such, the antibody was bound to the surface using various dilutions in 10 mM sodium acetate, 4.0. pH during a 7 min injection. […] The flow cell 1 was used as a reference and treated as the flow cell 2 (amine coupling method) without protein. Before use, 50 mM stock solutions of peptide ligand were diluted to the final concentration in the running buffer. Therefore, a series of different compounds were injected into the sensor chip at a flow rate of 30 μl/min for a period of 1 min followed by a dissociation period of 1 min. No regeneration was required. FIGS. 2A and 2B show the response-concentration curves obtained for the binding of glycopeptide 21 and 24, respectively, towards the 5E5 (anti-MUC1) antibody at 20° C. in SPR experiments. […]
In general terms: Surface plasmon resonance follows binding to a sensor surface in real time, without labels.

Experimental findings from patent US20260227407A1, “SYNTHETIC GLYCOPEPTIDES AND DERIVATIVES FOR THE EARLY-STAGE DETECTION OF CANCER BIOMARKERS IN MUC1-POSITIVE TUMORS” (FUNDACIÓN RIOJA SALUD, priority 2023, published 2026) are described below.

The substance “GGGGPAPGST(GalNAc)APPA (GalNAc glycosylation; APPA extension) [Glycopeptide 21, reference compound]” yielded an Rmax of 23 RU.
For “GGGGPAPGST(GalNCOEt)APPA (GalNCOEt glycosylation; APPA extension) [Glycopeptide 24]” the value was 23 RU.
